In patent US20220390432A1, “METHODS OF CHARACTERIZING AND UTILIZING AGENT-CONDENSATE INTERACTIONS” (Whitehead Institute for Biomedical Research, priority 2019, published 2022):
No constants are given. Whether binding was seen depends on the method and setting. Some results given as binding are weak or reduced against the parent protein; the word gives no strength.

Amino acid sequences for entries named in this document (tags omitted). A change or cut given only in a name is not applied to a line headed by its entry.
UniProt Q15648: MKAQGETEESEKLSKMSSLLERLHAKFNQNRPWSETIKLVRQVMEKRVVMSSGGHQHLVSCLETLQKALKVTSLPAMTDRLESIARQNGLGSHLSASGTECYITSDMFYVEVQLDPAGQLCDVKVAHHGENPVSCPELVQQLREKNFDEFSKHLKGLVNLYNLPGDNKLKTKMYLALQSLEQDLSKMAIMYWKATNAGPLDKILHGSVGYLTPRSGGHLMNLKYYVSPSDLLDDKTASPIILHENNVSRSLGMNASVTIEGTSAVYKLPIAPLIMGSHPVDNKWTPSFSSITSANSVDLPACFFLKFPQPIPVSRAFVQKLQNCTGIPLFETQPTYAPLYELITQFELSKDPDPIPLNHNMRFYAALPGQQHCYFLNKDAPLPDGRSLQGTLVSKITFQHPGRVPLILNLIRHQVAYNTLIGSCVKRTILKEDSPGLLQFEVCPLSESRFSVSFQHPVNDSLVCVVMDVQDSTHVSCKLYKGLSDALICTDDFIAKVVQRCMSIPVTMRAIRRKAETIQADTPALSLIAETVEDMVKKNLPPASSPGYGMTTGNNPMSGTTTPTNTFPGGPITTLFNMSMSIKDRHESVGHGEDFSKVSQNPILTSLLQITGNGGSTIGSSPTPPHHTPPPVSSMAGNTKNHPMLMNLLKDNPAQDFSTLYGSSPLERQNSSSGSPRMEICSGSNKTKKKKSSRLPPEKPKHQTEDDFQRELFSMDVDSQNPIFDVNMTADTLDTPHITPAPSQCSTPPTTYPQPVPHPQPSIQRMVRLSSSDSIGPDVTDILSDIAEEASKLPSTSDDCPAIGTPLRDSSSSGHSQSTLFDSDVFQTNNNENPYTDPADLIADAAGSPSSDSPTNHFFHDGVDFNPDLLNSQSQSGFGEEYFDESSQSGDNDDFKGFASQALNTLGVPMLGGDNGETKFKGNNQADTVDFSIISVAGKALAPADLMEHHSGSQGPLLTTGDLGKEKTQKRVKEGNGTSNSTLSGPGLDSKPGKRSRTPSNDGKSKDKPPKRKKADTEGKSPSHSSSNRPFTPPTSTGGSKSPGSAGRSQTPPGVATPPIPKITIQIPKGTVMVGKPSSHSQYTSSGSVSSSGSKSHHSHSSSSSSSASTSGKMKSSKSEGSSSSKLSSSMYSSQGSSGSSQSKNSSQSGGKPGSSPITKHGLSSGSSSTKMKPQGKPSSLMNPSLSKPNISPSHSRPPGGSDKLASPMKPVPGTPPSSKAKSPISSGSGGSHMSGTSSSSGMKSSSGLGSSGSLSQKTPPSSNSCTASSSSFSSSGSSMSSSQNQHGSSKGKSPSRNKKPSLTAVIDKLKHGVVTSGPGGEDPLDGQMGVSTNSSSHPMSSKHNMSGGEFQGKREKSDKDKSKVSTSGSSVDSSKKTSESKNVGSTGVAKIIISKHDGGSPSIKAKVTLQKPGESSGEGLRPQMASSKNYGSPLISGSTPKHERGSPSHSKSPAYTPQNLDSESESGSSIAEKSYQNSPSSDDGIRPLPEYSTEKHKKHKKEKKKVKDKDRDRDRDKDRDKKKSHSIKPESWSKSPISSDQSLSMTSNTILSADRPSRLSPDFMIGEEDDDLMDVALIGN
UniProt P45973: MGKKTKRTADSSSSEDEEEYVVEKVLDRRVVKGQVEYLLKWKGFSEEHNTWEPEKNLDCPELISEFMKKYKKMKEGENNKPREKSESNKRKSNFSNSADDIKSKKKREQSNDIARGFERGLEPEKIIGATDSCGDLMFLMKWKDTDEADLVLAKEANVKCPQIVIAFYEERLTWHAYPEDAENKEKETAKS
UniProt P03372: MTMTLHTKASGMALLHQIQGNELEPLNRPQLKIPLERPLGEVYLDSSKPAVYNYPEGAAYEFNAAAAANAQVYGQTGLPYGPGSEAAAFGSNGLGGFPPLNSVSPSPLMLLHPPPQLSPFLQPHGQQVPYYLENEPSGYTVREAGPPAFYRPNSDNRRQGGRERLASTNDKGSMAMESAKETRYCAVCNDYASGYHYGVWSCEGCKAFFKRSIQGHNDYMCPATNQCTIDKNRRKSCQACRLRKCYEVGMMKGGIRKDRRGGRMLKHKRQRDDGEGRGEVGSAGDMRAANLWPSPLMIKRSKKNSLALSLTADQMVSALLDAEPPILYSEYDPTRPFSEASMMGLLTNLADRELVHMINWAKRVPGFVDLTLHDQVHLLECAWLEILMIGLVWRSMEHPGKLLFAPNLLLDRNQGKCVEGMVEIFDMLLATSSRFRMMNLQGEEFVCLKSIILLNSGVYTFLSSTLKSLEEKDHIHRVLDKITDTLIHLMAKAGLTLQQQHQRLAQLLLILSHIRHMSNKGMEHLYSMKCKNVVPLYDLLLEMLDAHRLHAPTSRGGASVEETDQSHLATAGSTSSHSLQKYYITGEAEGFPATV

Key:
[1] = target: MED1 intrinsically disordered region, amino acids 600-1581, recombinant fluorescent fusion protein (human) (UniProt Q15648); assay: in vitro droplet assay, confocal microscopy
[2] = target: HP1α, full length, amino acids 1-191, recombinant fluorescent fusion protein (human) (UniProt P45973); assay: in vitro droplet assay, ER and HP1α at 10 µM
[3] = target: MED1 intrinsically disordered region, amino acids 600-1581, recombinant fluorescent fusion protein (human) (UniProt Q15648); assay: in vitro droplet assay with estrogen (co-condensation)
[4] = target: MED1 intrinsically disordered region, amino acids 600-1581, recombinant fluorescent fusion protein (human) (UniProt Q15648); assay: in vitro droplet assay, ER partitioning into MED1 droplets
[5] = target: MED1 intrinsically disordered region, amino acids 600-1581, recombinant fluorescent fusion protein (human) (UniProt Q15648); assay: in vitro droplet assay, 10 µM each protein, 100 µM estrogen
[6] = target: MED1 intrinsically disordered region, amino acids 600-1581, recombinant fluorescent fusion protein (human) (UniProt Q15648); assay: in vitro droplet assay, target protein partitioning into the MED1 condensate

- binding [1]: binds
- binding [2]: binds
- binding [3]: binds
- binding [4]: binds
- binding [5]: binds
- binding [6]: binds
Substance: Estrogen receptor (ERα), full length, amino acids 1-595, recombinant fluorescent fusion protein (from UniProt P03372 1-595)
